In patent US5300432:
The exact form of at least one protein or probe is not confirmed. No signal at the amounts used counts as a negative.

Test system: Srf I restriction endonuclease (Streptomyces rf (ATCC 55215))
Assay: enzyme reaction in vitro
Settings: purified native protein, protein details: FPLC purified from native strain, 55-64 kd

CAAGCCCGGGCTTG (double strand) [Srf I linker in pSMSrf I (pBluescript II SK+ EcoR V site)]
activity on this sequence (cleaved after third C, blunt ends, 37 C 15 min): active

GACGGGACATTTCAGATCGGCGGCGCTGGCCGCTCTTCATTTACGCCCCGTCAGGCGATCCTAACTCTGCAGACCTCGTCCTCGGAGCCGCGCTCCGGAGGCATTGGAACTCTACAATTTATTGAGGAGTTCGTGCCTTCGGTTTACTTCAACCCCTTTTCTGGACCTCCCGGCCACTACCCGGACCAGTTTATTCCCAACTTTGACGCGGTGAAAGACTCGGCGGACGGCTACGACTGAATGACCAGTGGAG (double strand) [Ad-2 PCR fragment A (nt 27659-27911)]
activity on this sequence (not digested, 37 C, 3 h): not active

CAGCGCCATTATGAGCAAGGAAATTCCCACGCCCTACATGTGGAGTTACCAGCCACAAATGGGACTTGCGGCTGGAGCTGCCCAAGACTACTCAACCCGAATAAACTACATGAGCGCGGGACCCCACATGATATCCCGGGTCAACGGAATCCGCGCCCACCGAAACCGAATTCTCCTCGAACAGGCGGCTATTACCACCACACCTCGTAATAACCTTAATCCCCGTAGTTGGCCCGCTGCCCTGGTGTACCAGGAAAGTCCCGCTCCCACCACTGTGGTACTTCCCAGAGACGCCCAGGCCGAGGTTCAGATGACTAACTCAGGGGCGCAGCTTGCGGGCGGCTTTCGTCACAGGGTGCGGTCGCCCGGGCAGGGTATAACTCACCTGAAAATCAGAGGGCGAGGTATTCAGCTCAACGACGA (double strand) [Ad-2 PCR fragment C (nt 27205-27627)]
activity on this sequence (cleaved GCCC*GGGC to 366 and 56 bp, 1X Universal Buffer (Mg acetate, K acetate), 37 C, 3 h): active

CTCACCTGAAAATCAGAGGGCGAGGTATTCAGCTCAACGACGAGTCGGTGAGCTCCTCTCTTGGTCTCCGTCCGGACGGGACATTTCAGATCGGCGGCGCTGGCCGCTCTTCATTTACGCCCCGTCAGGCGATCCTAACTCTG (double strand) [Ad-2 PCR fragment B (nt 27585-27727)]
activity on this sequence (not digested, 37 C, 3 h): not active
